The record followed here is PMC13070491, “Single-nucleus transcriptomics, pharmacokinetics, and pharmacodynamics of CDK4/6 and mTOR inhibition in a Phase 0/1 trial of recurrent high-grade glioma” (Neuro-Oncology, 2025).

The series has as its system GB126, GB239 and GB86 patient-derived cell lines. As to the kind of experiment: In vitro single-cell RNA sequencing, analyses across the cell lines (pseudobulk differential gene expression, GSEA, non-cycling cells). The class given is cell-based, human. Conditions: ribociclib-treated vs DMSO. As to the method:
Patient-derived glioma stem cell lines (GSCs; GB126, GB86, and GB239) were established from resected GBM tumor tissue. Cell lines were genetically profiled for mutations and copy number aberrations using the IvySeq custom gene panel. […] GB239 was derived from a tumor sample included in this Phase 0 trial (tumor sample: 100-0039). All human GSCs were cultured as described previously.[12]
Following the fifth day of drug exposure, cells were harvested, cryopreserved to be processed at a later point, or immediately processed for single-cell RNA sequencing (10x Genomics, 3’ version 3). The single-cell RNA sequencing data were then processed via cellranger count and Seurat. Briefly, cells were filtered out based on the following criteria: minimum number of genes detected >500 and <10 000 with a maximum percentage of mitochondrial genes set to 10%. Statistical assessment was made between the malignant proportions of each cell state using a 2-sided paired t-test.
Descriptive statistics of the clinical data are included in Table 1. Comparisons between groups were conducted using a 2-sided or paired 2-sided t-test, where indicated. P < .05 was considered significant. Multiple hypothesis test corrections (ie, false discovery rate correction) were applied for snRNAseq pseudobulk differential expression analysis.

As for `CN(C)C(=O)c1cc2cnc(Nc3ccc(N4CCNCC4)cn3)nc2n1C1CCCC1` [Ribociclib, ribociclib], the “programs enriched among upregulated genes, gene set enrichment analysis” value was “inflammatory response and epithelial-to-mesenchymal transition”. Besides, the “downregulated genes (number), pseudobulk differential gene expression” value (adj. P < .05, abs(log2FC) > 1) is 582.
